Data taken from US20030170310A1, “Tasteless, directly compressible, fast-dissolving complexes and pharmaceutical formulations thereof” (priority 2002, published 2003).

Assay: Stability studies
Type: physicochemical

Structure (SMILES): CC(C)(C(=O)O)c1ccc(C(O)CCCN2CCC(C(O)(c3ccccc3)c3ccccc3)CC2)cc1.Cl (racemic) [Fexofenadine Hydrochloride, (±)-4-[1-hydroxy-4-[4-(hydroxydiphenylmethyl)-1-piperidinyl]-butyl]-α,α-dimethylbenzene acetic acid hydrochloride]
- Stability: Stable
